A short description of the data set: general procedure: Fmoc solid-phase peptide synthesis; 2-chlorotrityl chloride resin (Iris Biotech), 0.85 mmol/g; TBTU/DIEA.
The mark [1] stands for this setting: coupling step, trifluoroacetate.
The mark [2] stands for this setting: late stage modification step, trifluoroacetate.
[3] abbreviates: cyclisation step, trifluoroacetate.
[4] abbreviates: late stage modification step, bistrifluoroacetate.

As for “Benzyl [(3R)-N^2-(tert-butoxycarbonyl)-3-hydroxy-L-leucyl]-L-leucyl-D-arginyl-L-isoleucyl-L-allothreonyl-glycyl-[3-{[(9H-fluoren-9-ylmethoxy)carbonyl]amino}-L-alanyl]-L-serinate trifluoroacetate”, the step yield under setting [1] is listed as 56% of theory.

Turning to “[(3R)-3-Amino-L-phenylalanyl]-[(3R)-3-hydroxy-L-leucyl]-L-leucyl-D-arginyl-L-isoleucyl-L-allothreonyl-glycyl-[(3S)-3-hydroxy-L-asparaginyl]-L-alanine C^1.9-N^3.1-lactam bishydrochloride”, the step yield (late stage modification step, bishydrochloride) is recorded as 97% of theory. With “[(3R)-N^2-(Benzyloxycarbonyl)-3-amino-L-phenylalanyl]-[(3R)-3-hydroxy-L-leucyl]-(3-trimethylsilyl-L-alanyl)-D-arginyl-L-isoleucyl-L-allothreonyl-glycyl-L-seryl-L-serine bistrifluoroacetate”, the step yield under setting [2] was 97% of theory. Regarding “[(3R)-N^2-(Benzyloxycarbonyl)-3-amino-L-phenylalanyl]-[(3R)-3-hydroxy-L-leucyl]-L-leucyl-D-arginyl-L-isoleucyl-L-allothreonyl-D-alanyl-[(3S)-3-hydroxy-L-asparaginyl]-L-serine C^1.9-N^3.1-lactam trifluoroacetate”, under setting [3], the cyclisation yield is on record as 48% of theory and the “final purity (method not given)” value is recorded as “approx. 34% pure”.

As for “[3-tert-Butyl-D-alanyl]-[3-tert-butyl-L-alanyl]-[(3R)-3-amino-L-phenylalanyl]-[(3R)-3-hydroxy-L-leucyl]-[3-trimethylsilyl-L-alanyl]-D-arginyl-L-isoleucyl-L-allothreonyl-glycyl-L-seryl-L-serine C^1.11-N^3.3-lactam”, the step yield (late stage modification step, from compound 435A, trifluoroacetate) was 42% of theory.

Take “[N^2-(tert.-Butoxycarbonyl)-3-tert-butyl-D-alanyl]-[3-tert-butyl-L-alanyl]-[(3R)-3-amino-3-(pyridin-3-yl)-L-alanyl]-[(3R)-3-hydroxy-L-leucyl]-L-leucyl-D-arginyl-L-isoleucyl-L-allothreonyl-glycyl-[(3R)-3-hydroxy-L-asparaginyl]-L-serine”: the step yield under setting [1] is 60% of theory. For the substance “[(3R)-3-Hydroxy-L-leucyl]-L-leucyl-D-arginyl-L-isoleucyl-L-leucyl-glycyl-L-seryl-L-serine bistrifluoroacetate”, the “final purity (method not given)” value under setting [2] is on record as 36% pure. In the case of “[3-Trimethylsilyl-D-alanyl]-[3-tert-butyl-L-alanyl]-[(3R)-3-amino-4-(dimethylamino-phenyl)-L-alanyl]-[(3R)-3-hydroxy-L-leucyl]-L-leucyl-D-arginyl-L-isoleucyl-L-allothreonyl-glycyl-[(3S)-3-hydroxy-L-asparaginyl]-L-serine C^1.11-N^3.3-lactam tristrifluoroacetate”, the step yield under setting [2] is recorded as 56% of theory. In the case of “N^2-(Benzyloxycarbonyl)-N^3-{N^2.1-tert-butoxycarbonyl[(3R)-3-hydroxy-L-leucyl]-L-leucyl-D-arginyl-L-isoleucyl-L-allothreonyl-glycyl-[(3S)-3-hydroxy-L-asparaginyl]-L-seryl}-(3R)-3-amino-L-alanine trifluoroacetate”, under setting [2], the step yield is 88.9% of theory.

In the case of “[(3R)-3-Amino-L-phenylalanyl]-[(3R)-3-hydroxy-L-leucyl]-L-leucyl-D-L-arginyl-isoleucyl-L-seryl-glycyl-L-seryl-L-serine C^1.9-N^3.1-lactam bishydrochloride”, the step yield (late stage modification step, of theory from 387A, trifluoroacetate) is recorded as 98% of theory. For “[3-tert-Butyl-D-alanyl]-[3-tert-butyl-L-alanyl]-[(3R)-3-amino-L-phenylalanyl]-[(3R)-3-hydroxy-L-leucyl]-L-leucyl-D-arginyl-L-isoleucyl-L-allothreonyl-glycyl-glycyl-L-serine C^1.11-N^3.3-lactam”, for the setting “late stage modification step, from compound 455A, trifluoroacetate”, the step yield was 7% of theory. Turning to “[(3R)-3-Hydroxy-L-leucyl]-L-leucyl-[(2R)-2-amino-4-benzyloxycarbonylaminobutyryl]-L-isoleucyl-L-allothreonyl-glycyl-L-seryl-L-serine bistrifluoroacetate”, under setting [2], the “final purity (method not given)” value was determined as 64% pure. For the substance “{(3R)-3-Amino-N-[(benzyloxy)carbonyl]-4-(dimethylaminophenyl)-L-alanyl}-[(3R)-3-hydroxy-L-leucyl]-L-leucyl-D-arginyl-L-isoleucyl-L-allothreonyl-glycyl-[(3S)-3-hydroxy-L-asparaginyl]-L-serine bistrifluoroacetate tristrifluoroacetate”, under setting [2], the “crude purity (method not given)” value is “about 70% pure” and the step yield is 80% of theory.

Consider “[(3R)-3-Hydroxy-L-leucyl]-L-norleucyl-D-arginyl-L-isoleucyl-L-allothreonyl-glycyl-L-alanyl-L-serine bistrifluoroacetate”, for which the “final purity (method not given)” value under setting [2] is listed as 60% pure.

Take “[(3R)-N^2-(Benzyloxycarbonyl)-3-amino-L-phenylalanyl]-[(3R)-3-hydroxy-L-leucyl]-L-leucyl-D-arginyl-L-phenylalanlyl-L-allothreonyl-glycyl-L-seryl-L-serine bistrifluoroacetate”: the step yield under setting [2] was 59% of theory. As to “D-Phenylalanyl-L-phenylalanyl-[(3R)-3-amino-L-alanyl]-[(3R)-3-hydroxy-L-leucyl]-L-leucyl-D-arginyl-L-isoleucyl-L-allothreonyl-glycyl-[(3S)-3-hydroxy-L-asparaginyl]-L-serine C^1.11N^3.3-lactam bistrifluoroacetate”, under setting [2], the step yield is given as 23.3% of theory. As for “Benzyl [(3R)-N^2-(tert-butoxycarbonyl)-3-hydroxy-L-leucyl]-L-leucyl-D-arginyl-L-isoleucyl-L-allothreonyl-glycyl-[3-(3-pyridyl)-L-alanyl]-L-serinate trifluoroacetate”, under setting [1], the step yield is 33% of theory. Same read-out and setting: next, “[(3R)-N^2-(Benzyloxycarbonyl)-3-{(tert-butoxycarbonyl)amino}-L-phenylalanyl]-[(3R)-3-hydroxy-L-leucyl]-L-valyl-D-arginyl-L-isoleucyl-L-allothreonyl-glycyl-L-seryl-L-serine trifluoroacetate”: 32% of theory; “Benzyl [(3R)-N^2-(tert-butoxycarbonyl)-3-hydroxy-L-leucyl]-L-leucyl-D-arginyl-L-isoleucyl-L-allothreonyl-glycyl-L-alanyl-L-serinate trifluoroacetate”: 50% of theory; “[(3R)-N^2-(Benzyloxycarbonyl)-3-{(tert-butoxycarbonyl)amino}-L-phenylalanyl]-[(3R)-3-hydroxy-L-leucyl]-L-leucyl-D-arginyl-L-isoleucyl-L-seryl-glycyl-[(3S)-3-hydroxy-L-asparaginyl]-L-serinate trifluoroacetate”: 80% of theory.

For “[N^2-(Benzyloxycarbonyl)-3-tert-butyl-D-alanyl]-[3-tert-butyl-L-alanyl]-{(3R)-3-amino-L-phenylalanyl}-{(3R)-3-hydroxy-L-leucyl}-L-leucyl-D-arginyl-L-isoleucyl-L-allothreonyl-glycyl-L-asparaginyl-L-serine bistrifluoroacetate”, the step yield under setting [4] is recorded as 85.8% of theory. Regarding “N^2-(Benzyloxycarbonyl)-N^3-{[(3R)-3-hydroxy-L-leucyl]-L-leucyl-D-arginyl-L-isoleucyl-L-allothreonyl-glycyl-[(3S)-3-hydroxy-L-asparaginyl]-L-seryl}-(3S)-3-amino-O-methyl-D-tyrosine trifluoroacetate”, the step yield under setting [2] is given as 99.9% of theory. For the substance “[(3R)-3-Hydroxy-L-leucyl]-L-leucyl-D-arginyl-L isoleucyl-L-allothreonyl-glycyl-[(2S)-2-amino-4-benzyloxycarbonylaminobutyryl]-L-serine bistrifluoroacetate”, under setting [2], the “final purity (method not given)” value stood at 67% pure. For “[(3R)-3-Hydroxy-L-leucyl]-L-leucyl-D-arginyl-L-isoleucyl-L-threonyl-glycyl-L-asparaginyl-L-serine bistrifluoroacetate”, the step yield under setting [4] is on record as 99.5% of theory. “[(3R)-N^2-(Benzyloxycarbonyl)-3-{(tert-butoxycarbonyl)amino}-L-phenylalanyl]-[(3R)-3-hydroxy-L-leucyl]-L-leucyl-D-arginyl-L-isoleucyl-L-allothreonyl-glycyl-[3-(3-pyridyl)-L-alanyl]-L-serine trifluoroacetate”: the step yield under setting [1] is 73% of theory.

For “[3-tert-Butyl-D-alanyl]-[3-tert-butyl-L-alanyl]-[(3R)-3-amino-L-phenylalanyl]-[(3R)-3-hydroxy-L-leucyl]-L-isoleucyl-D-arginyl-L-isoleucyl-L-allothreonyl-glycyl-L-seryl-L-serine C^1.11-N^3.3-lactam”, the step yield (late stage modification step, from compound 450A, trifluoroacetate) is reported as 70% of theory.

Take “[(3R)-3-Hydroxy-L-leucyl]-L-leucyl-D-arginyl-[3-trimethylsilyl-L-alanlyl]-L-allothreonyl-glycyl-L-seryl-L-serine bistrifluoroacetate”: the “final purity (method not given)” value under setting [2] is 64% pure. Regarding “[(3R)-N^2-(tert-Butoxycarbonyl)-3-hydroxy-L-leucyl]-L-leucyl-D-arginyl-L-isoleucyl-L-allothreonine trifluoroacetate”, under setting [2], the step yield is 55% of theory. Regarding “[N^2-(tert.-Butoxycarbonyl)-3-tert-butyl-D-alanyl]-[3-tert-butyl-L-alanyl]-[(3R)-3-amino-L-phenylalanyl]-[(3R)-3-hydroxy-L-leucyl]-L-leucyl-D-arginyl-L-isoleucyl-L-allothreonyl-glycyl-[L-threonyl]-L-serine C^1.11-N^3.3-lactam hydrochloride”, under “coupling step, hydrochloride”, the step yield is 91% of theory. As for “[(3R)-N^2-(Benzyloxycarbonyl)-3-{(tert-butoxycarbonyl)amino}-L-phenylalanyl]-[(3R)-3-hydroxy-L-leucyl]-L-leucyl-D-arginyl-L-isoleucyl-L-allothreonyl-D-seryl-L-seryl-L-serine trifluoroacetate”, under setting [1], the step yield is reported as 29% of theory.

The values are drawn from US8076285B2 (Aicuris GmbH & Co. KG, priority 2006, dated 2011).
